Experimental data reported in paper PMC9558419.
These are yes or no findings as the source states them, for the method shown. In cells and extracts the contact can be indirect. Some binding calls cover weakened binding; strength is not graded here.

Protein sequences, listed by entry. Tags and fused reporters are not part of them.
UniProt O15169: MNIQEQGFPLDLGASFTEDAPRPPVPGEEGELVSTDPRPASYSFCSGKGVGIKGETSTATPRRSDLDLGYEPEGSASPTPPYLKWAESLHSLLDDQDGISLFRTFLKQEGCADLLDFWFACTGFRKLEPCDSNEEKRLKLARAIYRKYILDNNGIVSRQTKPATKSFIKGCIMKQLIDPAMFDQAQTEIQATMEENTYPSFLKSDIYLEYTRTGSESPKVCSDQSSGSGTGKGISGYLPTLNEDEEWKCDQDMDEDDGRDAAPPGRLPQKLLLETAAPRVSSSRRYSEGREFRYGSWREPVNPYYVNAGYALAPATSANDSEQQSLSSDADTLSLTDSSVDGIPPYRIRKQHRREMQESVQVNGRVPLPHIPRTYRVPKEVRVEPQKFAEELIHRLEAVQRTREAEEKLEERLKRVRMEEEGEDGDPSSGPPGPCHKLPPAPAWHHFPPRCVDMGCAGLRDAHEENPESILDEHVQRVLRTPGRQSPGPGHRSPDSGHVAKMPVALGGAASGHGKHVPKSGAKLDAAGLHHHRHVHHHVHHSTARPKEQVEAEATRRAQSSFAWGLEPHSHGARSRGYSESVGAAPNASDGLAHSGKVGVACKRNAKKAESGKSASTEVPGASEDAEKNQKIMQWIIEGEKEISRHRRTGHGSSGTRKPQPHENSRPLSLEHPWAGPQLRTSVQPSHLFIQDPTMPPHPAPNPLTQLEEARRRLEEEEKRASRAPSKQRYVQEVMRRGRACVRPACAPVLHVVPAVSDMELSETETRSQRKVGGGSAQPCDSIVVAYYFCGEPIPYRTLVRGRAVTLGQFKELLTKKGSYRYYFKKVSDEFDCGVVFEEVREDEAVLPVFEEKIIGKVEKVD
UniProt O95071: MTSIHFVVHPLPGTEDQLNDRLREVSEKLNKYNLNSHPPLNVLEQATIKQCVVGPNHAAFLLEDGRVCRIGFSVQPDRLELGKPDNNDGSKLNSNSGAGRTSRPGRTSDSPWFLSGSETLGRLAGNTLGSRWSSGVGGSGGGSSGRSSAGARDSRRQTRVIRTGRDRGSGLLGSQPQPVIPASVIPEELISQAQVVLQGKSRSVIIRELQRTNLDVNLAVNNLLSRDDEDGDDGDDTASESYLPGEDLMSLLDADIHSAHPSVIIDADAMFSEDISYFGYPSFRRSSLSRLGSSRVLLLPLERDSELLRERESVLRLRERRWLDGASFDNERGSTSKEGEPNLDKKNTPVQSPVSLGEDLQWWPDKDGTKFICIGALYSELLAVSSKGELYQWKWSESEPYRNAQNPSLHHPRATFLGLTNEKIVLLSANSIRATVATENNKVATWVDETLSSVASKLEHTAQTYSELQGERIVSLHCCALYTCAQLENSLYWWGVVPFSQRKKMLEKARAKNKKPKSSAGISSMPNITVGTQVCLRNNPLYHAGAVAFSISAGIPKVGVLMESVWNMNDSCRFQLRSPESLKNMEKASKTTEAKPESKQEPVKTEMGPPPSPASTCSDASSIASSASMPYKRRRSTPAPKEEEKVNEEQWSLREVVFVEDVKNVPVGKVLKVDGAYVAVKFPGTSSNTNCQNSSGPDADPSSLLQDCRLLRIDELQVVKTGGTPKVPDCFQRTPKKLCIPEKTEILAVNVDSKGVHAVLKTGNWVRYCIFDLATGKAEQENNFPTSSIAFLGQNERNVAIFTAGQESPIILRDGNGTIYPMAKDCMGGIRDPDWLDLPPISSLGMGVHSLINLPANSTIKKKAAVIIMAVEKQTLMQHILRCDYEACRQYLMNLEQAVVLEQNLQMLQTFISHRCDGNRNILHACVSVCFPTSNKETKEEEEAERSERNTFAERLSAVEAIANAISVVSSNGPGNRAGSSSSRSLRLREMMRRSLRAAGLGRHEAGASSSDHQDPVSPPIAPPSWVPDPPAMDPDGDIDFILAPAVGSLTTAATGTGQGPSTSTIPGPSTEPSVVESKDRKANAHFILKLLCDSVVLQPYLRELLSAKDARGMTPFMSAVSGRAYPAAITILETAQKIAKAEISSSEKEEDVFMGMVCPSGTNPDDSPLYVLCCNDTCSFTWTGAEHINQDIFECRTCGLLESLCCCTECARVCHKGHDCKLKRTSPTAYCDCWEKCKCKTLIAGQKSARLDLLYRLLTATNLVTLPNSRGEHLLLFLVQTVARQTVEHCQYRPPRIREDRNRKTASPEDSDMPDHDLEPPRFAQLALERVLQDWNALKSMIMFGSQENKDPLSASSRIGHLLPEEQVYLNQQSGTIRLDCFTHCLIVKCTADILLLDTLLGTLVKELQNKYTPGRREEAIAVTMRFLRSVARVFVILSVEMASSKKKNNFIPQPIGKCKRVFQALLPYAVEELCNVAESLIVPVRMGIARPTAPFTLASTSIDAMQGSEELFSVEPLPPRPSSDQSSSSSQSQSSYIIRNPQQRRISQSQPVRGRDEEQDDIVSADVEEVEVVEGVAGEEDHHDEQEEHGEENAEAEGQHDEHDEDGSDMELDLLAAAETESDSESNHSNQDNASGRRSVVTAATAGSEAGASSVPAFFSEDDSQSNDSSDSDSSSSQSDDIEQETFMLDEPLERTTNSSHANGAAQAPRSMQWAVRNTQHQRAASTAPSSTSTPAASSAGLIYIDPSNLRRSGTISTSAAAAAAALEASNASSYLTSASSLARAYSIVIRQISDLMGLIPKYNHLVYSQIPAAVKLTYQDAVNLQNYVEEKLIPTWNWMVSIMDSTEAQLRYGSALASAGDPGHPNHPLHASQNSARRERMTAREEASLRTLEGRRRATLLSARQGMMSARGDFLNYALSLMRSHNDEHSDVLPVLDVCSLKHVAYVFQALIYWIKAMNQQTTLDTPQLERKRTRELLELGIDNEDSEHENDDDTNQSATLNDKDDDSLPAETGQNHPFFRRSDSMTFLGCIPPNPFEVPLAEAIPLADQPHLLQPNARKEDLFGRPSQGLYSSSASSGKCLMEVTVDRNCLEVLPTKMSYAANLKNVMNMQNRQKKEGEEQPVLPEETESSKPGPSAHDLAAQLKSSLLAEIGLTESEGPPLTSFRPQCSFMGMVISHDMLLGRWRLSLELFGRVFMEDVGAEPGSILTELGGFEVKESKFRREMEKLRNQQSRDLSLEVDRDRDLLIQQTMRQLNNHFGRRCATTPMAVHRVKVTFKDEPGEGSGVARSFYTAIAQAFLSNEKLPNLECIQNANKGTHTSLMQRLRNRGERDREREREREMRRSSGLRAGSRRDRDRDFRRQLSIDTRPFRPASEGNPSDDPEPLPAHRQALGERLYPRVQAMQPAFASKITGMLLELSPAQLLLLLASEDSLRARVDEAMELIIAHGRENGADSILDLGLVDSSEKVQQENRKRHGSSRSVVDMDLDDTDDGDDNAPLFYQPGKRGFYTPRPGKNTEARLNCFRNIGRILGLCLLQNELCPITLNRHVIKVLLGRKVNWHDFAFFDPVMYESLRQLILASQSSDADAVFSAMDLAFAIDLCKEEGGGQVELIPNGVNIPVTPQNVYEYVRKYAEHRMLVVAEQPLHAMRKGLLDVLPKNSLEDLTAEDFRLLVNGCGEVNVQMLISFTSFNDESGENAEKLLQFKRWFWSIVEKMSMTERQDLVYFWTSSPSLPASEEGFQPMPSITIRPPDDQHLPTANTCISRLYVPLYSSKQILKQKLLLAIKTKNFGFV

What was measured:
[1] = target: AXIN1 (human (endogenous in HepG2)) (UniProt O15169); assay: co-IP; HepG2 cells; pre-incubation 1 h with Protein A/G PLUS-Agarose, then anti-UBR5 antibody, anti-AXIN1 antibody or normal IgG overnight at 4 °C; immunocomplexes pulled down with Protein A Sepharose; western blotting with anti-UBR5 or anti-AXIN1
[2] = target: ubiquitin protein ligase E3 component N-recognin 5 (UBR5) (human (endogenous in HepG2)) (UniProt O95071); assay: as above

binding [1]	binding [2]	Substance
binds	–	ubiquitin protein ligase E3 component N-recognin 5 (UBR5) (from UniProt O95071 1-2799) (enzyme)
–	binds	AXIN1 (from UniProt O15169 1-862)
